# Measured values from the supplement of paper PMC11732987, “Enantioselective OTUD7B fragment discovery through chemoproteomics screening and high-throughput optimisation” (Communications Chemistry, 2025).
# The list shows a part of the results. The data scatter; read single values as rough.
# Tested on: T1, TK1 C206
# T1 sequence (whole entry): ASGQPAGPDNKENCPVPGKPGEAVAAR
# Assay: log2 mean competition ratio of IA-DTB cysteine labelling (DMSO/compound) (log2 ratio); higher = stronger cysteine engagement by compound
# Conditions: 50 µM; treatment time: 4 h; cell line lysate: HEK293T
# Method: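 IA-DTB competitive cysteine chemoproteomics in HEK293T RIPA lysate. Lysates were treated with compound 29 or 30 at 50 or 200 µM for 4 h, then IA-DTB (500 µM, 1 h), trypsin-digested, NeutrAvidin-enriched and analysed by diaPASEF. Competition ratio = intensity DMSO / intensity compound (n=4 treated, n=64 DMSO); binding: mean log2 CR ≥ 1 and p ≤ 0.05 plus QC filters. Target is the cysteine site.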
row,Structure (SMILES),log2 mean competition ratio
1,O=C(CCl)N[C@@H]1CCCc2ccccc21,-0.0936
2,O=C(CCl)N[C@H]1CCCc2ccccc21,-0.325

# Same assay, conditions: 200 µM; treatment time: 4 h; cell line lysate: HEK293T
row,Structure (SMILES),log2 mean competition ratio
1,O=C(CCl)N[C@@H]1CCCc2ccccc21,-0.15
2,O=C(CCl)N[C@H]1CCCc2ccccc21,-0.374
